Test results taken from PubChem BioAssay AID540276 (National Center for Advancing Translational Sciences (NCATS), 2011).
Hit rate of the full screen: of about 300,000 compounds, about 5,400 (1.8%) were called active. Inconclusive means that the source gave no clear call. Such entries were picked first, then a sample of the others. The call rests on the fitted dose curve; tested in HEK293 cells. Potencies beside an inconclusive call are fits to weak or partial responses and may not hold up.

test: qHTS for inhibitors of binding or entry into cells for Marburg Virus; conditions: Marburg virus pseudotyped entry inhibition, cell reporter; series mostly up to 37.8 µM
Potency means the concentration at half of the fitted maximal effect.

Compound	Potency
Cc1cc2cc(CNC(=O)Nc3ccccc3)ccc2n1C	inactive
CCCn1ncc(CN2CCC(n3nccc3NC(=O)c3ccccc3Cl)CC2)c1C	inconclusive: 1.12 µM [inhibitor, full curve, poor fit]
COc1ccccc1C(=O)Nc1ccc2c(c1)CCCN2C(=O)c1cccs1	inconclusive: 35.5 µM [inhibitor, single point]
COc1ccc(N2CC(=O)N(c3ccc(OC)c(OC)c3)CC2=O)cc1OC	inconclusive: 35.5 µM [activator, single point]
C/C(=C/c1oc2ccc(O)cc2c1[N+](=O)[O-])N(C)C	inactive
CC(=O)c1cccc(NC(=O)c2noc3c2CCCC3)c1	inconclusive: 3.16 µM [activator, partial curve, poor fit]
Cc1ccc(/C=C2/SC(=S)N(CCC(=O)NCCCN3CCOCC3)C2=O)cc1	inconclusive: 25.1 µM [inhibitor, single point]
Cc1cccc(N(CC(=O)NC2CCCCC2)C(=O)Cn2nnc(-c3ccc(C)o3)n2)c1	inconclusive: 3.98 µM [activator, single point]
O=C(Cn1cnc2nc3n(c2c1=O)CCC3)NCc1ccccc1	inconclusive: 2.82 µM [activator, full curve, poor fit]
COc1cccc(N2C(=O)CC(Sc3nc(C)cc(C)n3)C2=O)c1 (configuration not stated)	inactive
CCCn1c(SCC(=O)N2N=C3/C(=C/c4ccc(OC)cc4)CCCC3C2c2ccc(OC)cc2)n[nH]c1=O (configuration not stated)	inconclusive: 11.2 µM [inhibitor, partial curve, poor fit]
Cc1ccc(C)c(CN2C(=O)c3ccccc3S(=O)(=O)c3ccc(C(=O)N4CCCCC4)cc32)c1	inconclusive: 20 µM [inhibitor, partial curve, poor fit]
CCc1ccc(N=CC2=C(O)CC(c3ccco3)CC2=O)cc1 (configuration not stated)	inconclusive: 0.447 µM [activator, full curve, poor fit]
Nc1ccc2c(c1)C(=O)N(CC1CCCO1)C2=O (configuration not stated)	inconclusive: 10 µM [activator, partial curve]
CCOc1ccc(CN(C)C(=O)c2cc3ccccc3o2)cc1OC	inactive
C/C(=N\NC(=O)c1cccc(C)c1O)c1ccc(NC(=O)Cc2ccccc2)cc1	inconclusive: 3.16 µM [activator, single point]
COc1nc(SCC(=O)Nc2ccccc2Cl)nc(N(C)C)n1	inconclusive: 0.891 µM [inhibitor, full curve, poor fit]
COC(=O)c1ccc(COn2nnc3ccccc32)cc1	inconclusive: 3.98 µM [inhibitor, single point]
Cc1ccc(-c2n[nH]c(=O)c3ccccc23)cc1S(=O)(=O)Nc1ccccc1	inconclusive: 14.1 µM [inhibitor, partial curve, poor fit]
COc1ccc(OC)c(NC(=O)c2cccc(NC(=O)c3ccccc3)c2)c1	inconclusive: 3.55 µM [inhibitor, full curve]
CCC(C)(C)NC(=O)C(c1cccc(OC)c1OC)N(Cc1ccc(OC)cc1)C(=O)CCC(=O)Nc1cc(C)on1 (configuration not stated)	inconclusive: 7.94 µM [inhibitor, partial curve, poor fit]

An excerpt of these results, as a markdown table.

| Compound | Potency |
| --- | --- |
| Cc1cc2cc(CNC(=O)Nc3ccccc3)ccc2n1C | inactive |
| COc1ccc(N2CC(=O)N(c3ccc(OC)c(OC)c3)CC2=O)cc1OC | inconclusive: 35.5 µM [activator, single point] |
| C/C(=C/c1oc2ccc(O)cc2c1[N+](=O)[O-])N(C)C | inactive |
| CC(=O)c1cccc(NC(=O)c2noc3c2CCCC3)c1 | inconclusive: 3.16 µM [activator, partial curve, poor fit] |
| O=C(Cn1cnc2nc3n(c2c1=O)CCC3)NCc1ccccc1 | inconclusive: 2.82 µM [activator, full curve, poor fit] |
| COc1cccc(N2C(=O)CC(Sc3nc(C)cc(C)n3)C2=O)c1 (configuration not stated) | inactive |
| CCCn1c(SCC(=O)N2N=C3/C(=C/c4ccc(OC)cc4)CCCC3C2c2ccc(OC)cc2)n[nH]c1=O (configuration not stated) | inconclusive: 11.2 µM [inhibitor, partial curve, poor fit] |
| CCc1ccc(N=CC2=C(O)CC(c3ccco3)CC2=O)cc1 (configuration not stated) | inconclusive: 0.447 µM [activator, full curve, poor fit] |
| COC(=O)c1ccc(COn2nnc3ccccc32)cc1 | inconclusive: 3.98 µM [inhibitor, single point] |
| Cc1ccc(-c2n[nH]c(=O)c3ccccc23)cc1S(=O)(=O)Nc1ccccc1 | inconclusive: 14.1 µM [inhibitor, partial curve, poor fit] |

The list goes on:

Compound	Potency
COc1cccc(C2=NOC(C(=O)NCCN3CCOCC3)C2)c1 (configuration not stated)	inactive
Cc1cccc(N2CCN(C(=O)CCCCn3c(=O)[nH]c4ccsc4c3=O)CC2)c1C	inconclusive: 15.8 µM [activator, single point]
CC(=O)NS(=O)(=O)c1ccc(NC(=O)C(Sc2ccccc2)c2ccccc2)cc1 (configuration not stated)	inactive
COc1ccc(C2CC(c3ccccc3)=NN2S(=O)(=O)c2ccc(C)cc2)c(OC)c1 (configuration not stated)	inconclusive: 0.891 µM [activator, partial curve, poor fit]
Cc1csc(NC(=O)CSc2nc(C)cs2)n1	inactive
CCCCOc1cccc(C(=O)N(Cc2sccc2C)C2CCS(=O)(=O)C2)c1 (configuration not stated)	inactive
Cn1c(=O)n(C/C=C/c2ccccc2)c(=O)c2c1nc1n2CCCN1Cc1ccccc1	inconclusive: 25.9 µM [inhibitor, partial curve, poor fit]
O=[N+]([O-])c1ccc(-c2nc(=S)c3c(o2)CCCC3)cc1	inconclusive: 7.08 µM [activator, partial curve, poor fit]
CC(C)Oc1ccc(CNC(=S)N/N=C/c2ccc([N+](=O)[O-])cc2)cc1	inconclusive: 31.6 µM [activator, single point]
CC(NC(=O)c1ccc(N(C)C)cc1)C(c1cccs1)N1CCN(C)CC1 (configuration not stated)	inactive
O=[N+]([O-])c1cccc(/C=N/NS(=O)(=O)c2ccccc2)c1	inconclusive: 22.4 µM [inhibitor, single point]
COc1ccc(C(=O)NC2CC2)cc1OC1CCN(Cc2ccc(Cl)cc2)CC1	inconclusive: 35.5 µM [inhibitor, single point]
CCCCn1c(-c2ccc(OC(F)F)cc2)nc2c1c(=O)[nH]c(=O)n2CC(C)C	inconclusive: 5.01 µM [inhibitor, partial curve, poor fit]
COCCCNC(=O)c1oc2ccc(S(=O)(=O)N(C)C3CCCCC3)cc2c1C	inconclusive: 35.5 µM [inhibitor, partial curve, poor fit]
COc1ccc(Br)cc1C(=O)NC(=S)Nc1cc(-c2nc3ccccc3[nH]2)ccc1C	inconclusive: 12.6 µM [inhibitor, single point]
CCOc1ccc(CN2CCN(Cc3c[nH]c4ccccc34)CC2)cc1	inconclusive: 35.5 µM [inhibitor, single point]
COc1cc2c(cc1NC(=O)C1CCCO1)oc1ccccc12 (configuration not stated)	inactive
Cc1ccc2cc(CN(C(=O)c3ccncc3)C(C)C)c(=O)[nH]c2c1	inactive
C/C(=N\Nc1nc2ccccc2nc1C)c1ccccc1O	inactive
COc1ccc(CNC(=O)c2cc3c(=O)oc4ccc(C)cc4c3s2)c(OC)c1	inactive
CCOc1ccccc1N=C1SC(CC(=O)Nc2ccc(OC)cc2OC)C(=O)N1CCC1=CCCCC1 (configuration not stated)	inconclusive: 11.2 µM [inhibitor, partial curve, poor fit]
